PubChem BioAssay AID1159578 | Peter MacCallum Cancer Centre, 2015

Screen: 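Knock-downs that alter how fast lymphatic endothelial cells migrate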 (primary screen)
System: human lymphatic endothelial cells
Reagent: siRNA pool against human genes, 40 nM
Duration: 48 h after transfection
Measurement: 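High-content imaging of dye-stained cells in a scratch assay measures filled wound area and nuclei per well; duplicate means given as ratio to mock and robust z-score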
Reading the numbers: migration robust z-score: higher = faster migration into the scratch; nuclei per well: higher = more cells in the well
Active means: 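Pools averaging fewer than 3300 nuclei are never called; remaining pools count as changed when migration robust z lies outside -2 to 2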
Meaning of the calls: active = migration changed; inactive = no migration change, or too few cells
The whole screen tested about 18,000 reagents; below is a random part of them. Of all reagents, about 1,030 (5.7%) are marked active. 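Inactive calls also include pools with fewer than 3300 nuclei, whose migration was not assessed.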 The raw values are shown without normalisation. Entries without a mark were called inactive. Further read-outs or replicates are left out here.

The first 2 entries as a preview:
| gene knocked down | migration robust z-score | migration class with cell-count check | nuclei per well, duplicate mean |
| --- | --- | --- | --- |
| ZNF875 | 0.54 | migration z between -2 and 2; enough cells | 7386 |
| PAGE2B | 0.86 | migration z between -2 and 2; enough cells | 5697 |

The listing, from the start:
| gene knocked down | migration robust z-score | migration class with cell-count check | nuclei per well, duplicate mean |
| --- | --- | --- | --- |
| ZNF875 | 0.54 | migration z between -2 and 2; enough cells | 7386 |
| PAGE2B | 0.86 | migration z between -2 and 2; enough cells | 5697 |
| HARS2 | 0.44 | migration z between -2 and 2; enough cells | 5470 |
| CCND3 | 1.58 | migration z between -2 and 2; enough cells | 5382 |
| GOT2 | 0.91 | migration z between -2 and 2; enough cells | 5230 |
| IL20RB | 0.66 | migration z between -2 and 2; enough cells | 4014 |
| H2AB2 | 0.52 | migration z between -2 and 2; enough cells | 5980 |
| PRR11 | 0.08 | migration z between -2 and 2; enough cells | 5581 |
| ZNF311 | -0.14 | migration z between -2 and 2; enough cells | 6782 |
| CLEC7A | -1.12 | migration z between -2 and 2; enough cells | 5508 |
| CD82 | 0.38 | migration z between -2 and 2; enough cells | 6560 |
| PKD2L1 | -0.78 | migration z between -2 and 2; enough cells | 4104 |
| EBLN2 | -0.24 | migration z between -2 and 2; enough cells | 5939 |
| PIGT | -0.08 | migration z between -2 and 2; enough cells | 5558 |
| ALDH1A2 | 0.68 | migration z between -2 and 2; enough cells | 5608 |
| BRIX1 | 0.26 | migration z between -2 and 2; enough cells | 5938 |
| DGKE | -2.34 (active) | migration z below -2; enough cells | 4382 |
| HAUS3 | 0.05 | migration z between -2 and 2; enough cells | 6664 |
| SPATA9 | 0.2 | migration z between -2 and 2; enough cells | 5628 |
| PNRC1 | -0.04 | migration z between -2 and 2; enough cells | 4858 |
| LRRC3 | -0.82 | under 3300 nuclei; migration not judged | 2826 |
| ZNF628 | -0.08 | migration z between -2 and 2; enough cells | 5624 |
| CRYBG3 | 0.32 | migration z between -2 and 2; enough cells | 6344 |
